Measured values as given in US8435762B2, “Chimeric ligand-gated ion channels and methods of use thereof” (Howard Hughes Medical Institute, priority 2008, dated 2013).
Some entries share one result that the patent states for a list of compounds.

Amino acid sequences for entries named in this document (tags omitted). Chains listed by the source or under a name are the forms on record and can include a tag or linker.
UniProt P36544, with tags, fused parts or gaps Q79G/T225I/M226I: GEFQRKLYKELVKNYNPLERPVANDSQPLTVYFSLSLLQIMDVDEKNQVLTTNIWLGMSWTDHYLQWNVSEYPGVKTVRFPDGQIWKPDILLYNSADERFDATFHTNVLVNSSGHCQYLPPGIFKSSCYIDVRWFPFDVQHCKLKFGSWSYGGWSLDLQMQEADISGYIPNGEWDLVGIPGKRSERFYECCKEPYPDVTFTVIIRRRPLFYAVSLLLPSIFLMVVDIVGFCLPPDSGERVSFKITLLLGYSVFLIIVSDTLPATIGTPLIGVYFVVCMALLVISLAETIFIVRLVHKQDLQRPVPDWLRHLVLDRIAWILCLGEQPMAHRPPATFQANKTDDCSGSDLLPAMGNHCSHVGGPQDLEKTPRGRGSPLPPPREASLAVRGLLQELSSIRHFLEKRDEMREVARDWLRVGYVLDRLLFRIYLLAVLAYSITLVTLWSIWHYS
UniProt P36544, with tags, fused parts or gaps W77F/T225I/M226I: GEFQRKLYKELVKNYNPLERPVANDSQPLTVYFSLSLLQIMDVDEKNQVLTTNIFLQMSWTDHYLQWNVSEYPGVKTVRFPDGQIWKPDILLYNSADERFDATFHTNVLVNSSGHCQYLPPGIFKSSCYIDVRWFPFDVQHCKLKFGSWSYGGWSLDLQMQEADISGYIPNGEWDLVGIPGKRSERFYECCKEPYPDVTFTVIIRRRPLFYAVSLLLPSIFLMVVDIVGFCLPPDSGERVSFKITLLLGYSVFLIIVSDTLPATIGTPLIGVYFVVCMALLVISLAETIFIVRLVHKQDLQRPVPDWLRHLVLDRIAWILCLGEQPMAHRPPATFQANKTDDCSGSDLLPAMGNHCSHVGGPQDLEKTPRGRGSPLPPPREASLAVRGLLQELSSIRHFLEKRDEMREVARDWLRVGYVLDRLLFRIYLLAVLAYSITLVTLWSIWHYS
UniProt P36544, with tags, fused parts or gaps L141F/T225I/M226I: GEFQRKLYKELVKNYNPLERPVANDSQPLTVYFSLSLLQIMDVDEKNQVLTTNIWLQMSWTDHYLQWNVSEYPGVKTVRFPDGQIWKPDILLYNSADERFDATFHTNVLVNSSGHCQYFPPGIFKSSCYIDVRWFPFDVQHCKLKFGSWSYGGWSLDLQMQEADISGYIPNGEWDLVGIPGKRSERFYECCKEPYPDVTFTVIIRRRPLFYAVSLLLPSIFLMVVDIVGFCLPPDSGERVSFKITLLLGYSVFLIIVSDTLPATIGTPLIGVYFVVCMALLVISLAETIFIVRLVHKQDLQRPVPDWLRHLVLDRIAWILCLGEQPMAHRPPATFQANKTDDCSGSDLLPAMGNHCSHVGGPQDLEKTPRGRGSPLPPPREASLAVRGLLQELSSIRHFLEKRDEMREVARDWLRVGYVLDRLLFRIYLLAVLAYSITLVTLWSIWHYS
UniProt P36544, with tags, fused parts or gaps T225I/M226I: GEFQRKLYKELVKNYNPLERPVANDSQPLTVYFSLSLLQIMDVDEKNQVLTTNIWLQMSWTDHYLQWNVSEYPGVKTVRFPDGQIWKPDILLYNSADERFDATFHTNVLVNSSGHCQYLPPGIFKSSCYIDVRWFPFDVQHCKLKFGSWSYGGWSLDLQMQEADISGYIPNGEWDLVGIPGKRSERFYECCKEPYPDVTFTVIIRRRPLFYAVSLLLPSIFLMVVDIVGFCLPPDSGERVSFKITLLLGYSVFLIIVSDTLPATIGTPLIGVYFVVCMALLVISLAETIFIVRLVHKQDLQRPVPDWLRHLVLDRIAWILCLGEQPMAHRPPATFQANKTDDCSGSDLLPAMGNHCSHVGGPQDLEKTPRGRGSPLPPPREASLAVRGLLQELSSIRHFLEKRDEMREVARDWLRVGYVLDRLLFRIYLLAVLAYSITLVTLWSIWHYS

What was measured:
Assay in all cases: fluorescence membrane potential (MP) assay, HEK 293 cells
Assay type in all cases: cell-based, human/mouse
α7-5HT3 Q79G = target: T1, α7-5HT3 Q79G (Homo sapiens, UniProt P36544, M226I/Q79G/T225I); settings: read-out: EC50-MP, IPD 5HT3, value (s.e.m.)
T1 construct: expressed in transfected cells; host or cells: HEK 293 cells (ATCC CRL-1573)

α7-5HT3 W77F = target: T2, α7-5HT3 W77F (Homo sapiens, UniProt P36544, M226I/T225I/W77F); settings: IPD 5HT3, value (s.e.m.)
T2 construct: expressed in transfected cells; host or cells: HEK 293 cells (ATCC CRL-1573)

α7-5HT3 L141F = target: T3, α7-5HT3 L141F (Homo sapiens, UniProt P36544, L141F/M226I/T225I); settings: analogs relative to 19S
T3 construct: expressed in transfected cells; host or cells: HEK 293 cells (ATCC CRL-1573)

[1] = target: T4, α7-5HT3 wt chimeric receptor (Homo sapiens, UniProt P36544, M226I/T225I); settings: read-out: EC50 for wt α7-5HT3; Example 4; assay not named
T4 construct: expressed in transfected cells; host or cells: HEK 293 cells

For O=C(N[C@@H]1CN2CCC1CC2)c1ccc(C(F)(F)F)cc1 [Compound 22S, (S)—N-(quinuclidin-3-yl)-4-(trifluoromethyl)benzamide], the EC50 (α7-5HT3 Q79G) was 0.8 to 3 µM.
Molecule O=C(N[C@@H]1CN2CCC1CC2)c1ccc(-c2cccs2)cc1 [Compound 34S, (S)—N-(quinuclidin-3-yl)-4-(thiophen-2-yl)benzamide] has an EC50 (α7-5HT3 W77F) of 0.8 to 3 µM.
COc1ccc(C(=O)N[C@@H]2CN3CCC2CC3)c(OC)c1 [Compound 88S, (S)-2,4-dimethoxy-N-(quinuclidin-3-yl)benzamide] was tested, and the “improvement in efficacy against α7-5HT3 L141F” value (α7-5HT3 L141F) was 5-10 fold.
For COc1ccc(OC)c(C(=O)N[C@@H]2CN3CCC2CC3)c1 [Compound 89S, (S)-2,5-dimethoxy-N-(quinuclidin-3-yl)benzamide], the “improvement in efficacy against α7-5HT3 L141F” value (α7-5HT3 L141F) was 5-10 fold.
c1ccc2c(c1)CC1C(=NN2)C2CCN1CC2 (centres unmarked) [Compound 212] was tested, and the EC50 [1] was greater than 100 µM.
